Experimental data: PubChem BioAssay AID686938 (Drosophila RNAi Screening Center, 2013)
Screen: 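Fly genes required for calcium entry once internal stores are emptied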 (primary screen). Cells: Drosophila S2R+ cells. Reagent: long dsRNA against Drosophila genes, about 0.25 µg dsRNA per well, roughly 10,000 cells. Time to read-out: 5 days of knock-down before the calcium assay. Conditions: thapsigargin (SERCA pump blocker) to empty calcium stores; entry signal taken 4 min after adding it. Measurement: 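Per-well fluo-4 fluorescence in two replicates, unnormalised, measured in resting cells and 4 min after store depletion by the SERCA blocker thapsigargin; ratio of the two present in few wells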. Scale: calcium entry signal: higher = stronger calcium signal after store depletion; entry to resting ratio: higher = more calcium entry relative to resting level; resting calcium signal: higher = higher resting calcium signal. Active means: 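Called when the plate z-score of the entry-to-rest ratio, mean of duplicates, falls below −3; wells with low overall dye signal (Fmax z below −2) or more than five off-targets excluded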. Calls: active = strongly reduced calcium entry; inactive = no strong reduction.
In all, the deposit lists about 23,000 reagents; below is an unselected part of those with a known target gene and a result. Over the whole deposit, 75 (0.33%) are marked active. 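Raw plate signals without normalisation; calls rest on plate z-scores that were not deposited; ratio present for only 364 wells.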 A number with no mark means an inactive call. A plus sign joins genes that one reagent is predicted to hit. The record does not give: the dose of the treatment.

no.	predicted target	dsRNA	calcium entry signal, replicate 1 (fluorescence units)	calcium entry signal, replicate 2 (fluorescence units)	entry to resting ratio	resting calcium signal, replicate 1 (fluorescence units)	resting calcium signal, replicate 2 (fluorescence units)
1	Trap1	DRSC05019	4.01e7			2.03e7	
2	Sras	DRSC11287	3.79e7	5.69e7		1.76e7	2.45e7
3	oaf	DRSC00831	3.30e7	4.54e7		1.63e7	1.86e7
4	CheB53a	DRSC06625	4.46e7	5.15e7		2.01e7	2.54e7
5	CG7430	DRSC10845	3.76e7	3.97e7		1.73e7	2.76e7
6	Tnks	DRSC14154	7.79e7	2.24e7		5.29e7	1.00e7
7	CG3349	DRSC10359	4.19e7	5.28e7		1.87e7	2.08e7
8	CG31706	DRSC22704	3.74e7	3.98e7		2.02e7	1.72e7
9	CG33346	DRSC22898	4.15e7	4.20e7		2.33e7	1.85e7
10	IntS6	DRSC18281	2.56e7	2.84e7		1.29e7	1.44e7
11	Mst98Ca	DRSC16749	3.79e7	3.76e7		1.76e7	2.06e7
12	CG13609	DRSC14612	5.72e7	3.50e7		2.34e7	1.42e7
13	CG13609	DRSC22843	2.82e7	4.63e7		1.45e7	2.00e7
14	rhea	DRSC11300	3.38e7	4.83e7		1.58e7	2.11e7
15	ND-49	DRSC17151	4.28e7	6.46e7	2.1	2.02e7	2.08e7
16	CG6891	DRSC20016	4.91e7	5.76e7		2.51e7	2.20e7
17	L	DRSC06666	2.50e7	2.83e7		1.27e7	1.30e7
18	L	DRSC06668	2.47e7	3.35e7		1.34e7	1.43e7
19	CG6867	DRSC20013	3.30e7	3.64e7		1.71e7	1.81e7
20	dikar	DRSC09699	4.29e7	3.22e7		2.70e7	1.36e7
21	dikar	DRSC22261	2.69e7	3.53e7		1.46e7	1.66e7
22	Muc4B	DRSC18062	3.46e7	4.47e7		2.12e7	2.33e7
23	Muc4B	DRSC18063	2.93e7	4.66e7		1.51e7	2.21e7
24	TM9SF3	DRSC09747	3.81e7	4.87e7		1.74e7	2.11e7
25	CG2694	DRSC18470	3.97e7	4.43e7		1.88e7	2.02e7
26	CG14456	DRSC11713	2.40e7	3.38e7		1.17e7	1.52e7
27	hyx	DRSC14462	2.56e7	3.01e7		1.33e7	1.58e7
28	Amy-d + Amy-p	DRSC21242	5.24e7	5.14e7		2.65e7	2.40e7
29	CG33124	DRSC00298	2.40e7	2.84e7		1.17e7	1.14e7
30	CG31050	DRSC13883	4.17e7	3.51e7		1.85e7	1.83e7
31	Rab3-GAP	DRSC02001	4.25e7			2.05e7	
32	CG11398	DRSC18625	4.09e7	4.99e7	2.3	1.78e7	2.09e7
33	CG34460	DRSC06974	3.49e7	3.70e7		1.47e7	1.80e7
34	Tep4	DRSC03453	5.67e7	4.79e7		2.69e7	2.16e7
35	Pebp1	DRSC15354	2.60e7	3.44e7		6.68e7	1.51e7
36	MRG15	DRSC16731	4.15e7	5.63e7		1.97e7	2.57e7
37	CG10803	DRSC17763	5.15e7	5.04e7		2.42e7	2.29e7
38	CG5024	DRSC15698	3.84e7	5.08e7		1.85e7	2.06e7
39	Trpm	DRSC06629	2.39e7	2.07e7		1.10e7	9.58e6
40	Trpm	DRSC21566	3.62e7	3.03e7		2.05e7	1.36e7
41	mxc	DRSC17819	2.15e7	2.11e7		1.18e7	1.10e7
42	CG5335	DRSC06931	3.80e7	3.58e7		1.84e7	1.68e7
43	CG1896	DRSC15397	2.71e7	3.33e7		1.24e7	1.55e7
44	Tgi	DRSC09793	2.93e7	4.50e7		1.66e7	2.05e7
45	Tgi	DRSC09794	3.06e7	5.20e7		1.64e7	2.47e7
46	TSG101	DRSC11098	3.25e7	4.79e7		2.12e7	2.32e7
47	ste24a	DRSC07314	4.74e7	4.21e7		1.98e7	1.82e7
48	CG14929	DRSC02411	3.34e7	4.31e7		1.68e7	1.99e7

No new results follow: entries from further up.
no.	predicted target	dsRNA	calcium entry signal, replicate 1 (fluorescence units)	calcium entry signal, replicate 2 (fluorescence units)	entry to resting ratio	resting calcium signal, replicate 1 (fluorescence units)	resting calcium signal, replicate 2 (fluorescence units)
39	Trpm	DRSC06629	2.39e7	2.07e7		1.10e7	9.58e6
40	Trpm	DRSC21566	3.62e7	3.03e7		2.05e7	1.36e7
41	mxc	DRSC17819	2.15e7	2.11e7		1.18e7	1.10e7
42	CG5335	DRSC06931	3.80e7	3.58e7		1.84e7	1.68e7
43	CG1896	DRSC15397	2.71e7	3.33e7		1.24e7	1.55e7
44	Tgi	DRSC09793	2.93e7	4.50e7		1.66e7	2.05e7
45	Tgi	DRSC09794	3.06e7	5.20e7		1.64e7	2.47e7
46	TSG101	DRSC11098	3.25e7	4.79e7		2.12e7	2.32e7

Next results follow.
no.	predicted target	dsRNA	calcium entry signal, replicate 1 (fluorescence units)	calcium entry signal, replicate 2 (fluorescence units)	entry to resting ratio	resting calcium signal, replicate 1 (fluorescence units)	resting calcium signal, replicate 2 (fluorescence units)
49	CG43191	DRSC05326	3.68e7	3.97e7		1.69e7	1.56e7
50	CG32713	DRSC22766	3.63e7	3.92e7		2.05e7	1.77e7
51	PpV	DRSC18700	2.04e7	3.91e7		1.17e7	1.97e7
52	PpV	DRSC23307	3.62e7	4.25e7		1.91e7	1.96e7
53	Ntan1	DRSC07546	5.19e7	5.33e7		2.22e7	2.44e7
54	beta-PheRS	DRSC15859	2.92e7	2.53e7		1.47e7	1.28e7
55	wgn	DRSC19998	3.72e7	3.77e7		1.70e7	1.55e7
56	CG18744	DRSC15381	3.87e7	3.41e7		1.99e7	1.59e7
57	CG16986	DRSC08502	4.01e7	4.95e7		1.93e7	2.17e7
58	Plc21C	DRSC00773	4.16e7			1.67e7	
59	PGAP2	DRSC00632	1.39e7			1.05e7	
60	Sec61gamma	DRSC19570	3.31e7 (active)	3.66e7		2.30e7	2.19e7
61	bol	DRSC08964	4.94e7	6.18e7		2.45e7	2.65e7
62	bol	DRSC10444	2.92e7	4.33e7		1.55e7	1.61e7
63	bol	DRSC11329	3.17e7	3.04e7		1.59e7	1.39e7
64	ppk11	DRSC02737	3.26e7	4.52e7		1.59e7	1.88e7
65	CG6678	DRSC16092	2.21e7	2.23e7		9.77e6	1.09e7
66	Mcad	DRSC09871	5.83e7	4.79e7		3.67e7	1.90e7
67	CG17658	DRSC04292	4.33e7	4.73e7		2.16e7	2.23e7
68	Hsl	DRSC06028	4.35e7	3.56e7		1.92e7	1.82e7
69	RpL27A	DRSC00781	1.15e7	1.05e7		8.47e6	7.33e6
70	CAH2	DRSC10746	3.00e7	3.91e7		1.56e7	1.90e7
71	TpnC41C	DRSC04916	2.93e7	4.48e7		1.51e7	2.07e7
72	CG4161	DRSC01930	4.10e7	3.32e7		2.00e7	1.52e7
73	CG4286	DRSC04459	3.13e7	4.16e7		1.81e7	1.83e7
74	exu	DRSC07615	4.23e7	3.28e7		1.94e7	1.68e7
75	Fnta	DRSC00557	3.45e7			1.70e7	
